From PubChem BioAssay AID2685 (National Center for Advancing Translational Sciences (NCATS), 2010)
This is one part of the list. These are further read-outs of the screen, such as a control signal, another cell line or another target. No call is given for them. Compounds called inactive in the main read-out are mostly missing here. Words in brackets tell the shape of the fitted curve; partial curves, single points and poor fits give uncertain potencies.

Test: qHTS Assay for Lipid Storage Modulators in Drosophila S3 Cells;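 as to cell number change: cells counted by Cell Tracker Red CMTPX staining in the red channel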
Conditions: BODIPY lipid droplet fluorescence, 18-24 h; for cell number change: measured here: cell count max response, cells fed with added oleic acid
Summary of the method: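 Drosophila S3 cells got compounds at several concentrations plus oleic acid (400 uM solution). Laser-scanning cytometry with 488 nm excitation read lipid droplets at 500-530 nm and cells at 575-640 nm. Percent activity was relative to 20 uM Triacsin C.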

[1] = measured here: lipid fluorescence (Fed channel) AC50, cells fed with added oleic acid
[2] = measured here: cell number channel AC50, cells fed with added oleic acid

CC(C(=O)OCC(=O)N1CCN(c2ccccc2)CC1)N1C(=O)c2ccccc2C1=O (configuration not stated)
cell number change: 5.26% | AC50 [1]: 0.92 µM [falling, full curve, poor fit]

CCCN1CCN(C(=O)c2cc(COc3ccc(F)cc3F)on2)CC1
AC50 [2]: 0.00461 µM [falling, full curve, poor fit]

COc1ccc(S(=O)(=O)Nc2ccccc2N2CCOCC2)cc1OC
cell number change: -0.0645% | AC50 [2]: 0.92 µM [rising, single point] | AC50 [1]: 6.51 µM [falling, single point]

COc1ccc(C2C(C(=O)N3CCN(c4ccccc4F)CC3)c3ccccc3C(=O)N2C)cc1 (configuration not stated)
AC50 [2]: 1.84 µM [rising, partial curve] | AC50 [1]: 2.06 µM [rising, partial curve]

CCSc1nnc(-c2cc3c(s2)-c2ccccc2CC3)o1
cell number change: 7.48%

Cc1csc(Nc2ccccc2)n1
cell number change: -34.2%

CCN(CC)C(=O)Cn1cnc([N+](=O)[O-])n1
cell number change: 15.3% | AC50 [1]: 0.651 µM [rising, single point]

CC(C)(C)OC(=O)c1c(N)n(CCCN2CCCC2=O)c2nc3ccccc3nc12
cell number change: 24.4% | AC50 [2]: 0.259 µM [rising, full curve] | AC50 [1]: 0.092 µM [rising, full curve, poor fit]

CC(=O)c1cc(Cc2csc(C(C)=O)c2)cs1
cell number change: 2.86%

Cc1ccc(N2CCN(CCCN3C(=O)C4CCCN4C3=O)CC2)cc1 (configuration not stated)
AC50 [1]: 0.0058 µM [rising, full curve, poor fit]

CN(C)/C=N/c1cnc(C(=O)c2ccc(Cl)cc2)n1C
cell number change: 15.4% | AC50 [2]: 2.06 µM [rising, single point]

Nc1c(S(=O)(=O)c2ccccc2)cnc2c(-c3ccc(F)cc3)cnn12
cell number change: -18.5%

COc1ccc(C)cc1NC(=S)Nc1ccccc1SC
cell number change: 17.7% | AC50 [1]: 2.59 µM [falling, partial curve]

CCOC(=O)c1sc(NC(=O)C(CC)Sc2nnc3c4ccccc4n(C(C)C)c3n2)nc1C (configuration not stated)
cell number change: -31.2% | AC50 [2]: 1.84 µM [falling, partial curve, poor fit] | AC50 [1]: 0.058 µM [falling, full curve, poor fit]

CCCCN1C(=O)C(NC(C)=O)c2cc(Br)ccc21 (configuration not stated)
cell number change: 28.4%

COc1cc(NC(=O)C(c2ccccc2)c2ccccc2)c(C(=O)O)cc1OC
cell number change: 17.3% | AC50 [1]: 29.1 µM [rising, single point]

C=CCn1c(COc2ccc(OC)cc2)nnc1SCn1nnc2ccccc2c1=O
cell number change: 47.2% | AC50 [2]: 20.6 µM [rising, single point]

CCOc1ccc(N(CC(=O)OC)S(=O)(=O)c2c(C)noc2C)cc1
cell number change: -14.1%

O=C(Nc1cccc(C(=O)N2CCCc3ccccc32)c1)c1ccccc1
cell number change: -39.8% | AC50 [2]: 16.4 µM [falling, single point]

CCOC(=O)N1CCC(NC(=O)CN2C(=O)CSc3ncccc32)CC1
cell number change: 11.2% | AC50 [1]: 23.1 µM [falling, partial curve]

CCn1nnc(NC(=O)c2ccc(-c3ccccc3[N+](=O)[O-])o2)n1
cell number change: 95.1% | AC50 [2]: 23.1 µM [rising, single point] | AC50 [1]: 23.1 µM [rising, partial curve]

CN(C)C(=O)c1ccc(NC(=O)CSc2nnc(-c3ccc4c(c3)OCO4)o2)cc1
AC50 [1]: 29.1 µM [rising, single point]

NC(=O)c1cc2cc(Cl)ccc2oc1=Nc1cccc(C(F)(F)F)c1
cell number change: -32.8% | AC50 [2]: 18.4 µM [falling, single point] | AC50 [1]: 23.1 µM [falling, single point]

CCN(CC)C(=O)Oc1cc(=O)n(C)c2ccccc12
cell number change: 33.3% | AC50 [2]: 1.84 µM [rising, full curve] | AC50 [1]: 5.17 µM [rising, partial curve]

COc1ccc(-c2cc(C(=O)Nc3sc4c(c3C#N)CCCC4)c3ccccc3n2)cc1OC
AC50 [1]: 20.6 µM [rising, single point]

CCc1cccc(Nc2c3c(nc4ncnn24)CCC3)c1
cell number change: 7.4% | AC50 [1]: 0.651 µM [rising, full curve, poor fit]

COc1ccc(C(CNC(=O)c2ccc(Cl)s2)N2CCOCC2)cc1 (configuration not stated)
cell number change: 37% | AC50 [2]: 5.8 µM [rising, full curve, poor fit]

C=CCOc1c(Cl)cc(CNn2cn[nH]c2=S)cc1OC
cell number change: 32.8% | AC50 [2]: 35.5 µM [rising, single point]

CCOC(=O)/C(C(=O)Nc1ccc(Cl)cc1Cl)=C1/NC(C)(C)Cc2ccccc21
cell number change: -26.2% | AC50 [1]: 29.1 µM [falling, single point]

O=C(N[C@@H](Cc1ccccc1)C(=O)O)c1cccs1
cell number change: 9.4%

CCn1c(SCC(=O)Nc2nc3ccc(OC)cc3s2)nnc1-c1ccoc1C
cell number change: -10.8% | AC50 [1]: 29.1 µM [falling, single point]

Cc1nn(-c2ccccn2)c2c1C(c1ccccn1)C1=C(CCCC1=O)N2 (configuration not stated)
AC50 [1]: 0.517 µM [rising, partial curve, poor fit]

Cc1occc1C(=O)Nc1nn[nH]n1
cell number change: 5.16% | AC50 [1]: 6.51 µM [rising, single point]

COc1ccc(CCNC(=O)Cc2cccs2)cc1
cell number change: -1.49%

CC1=C(C(=O)Nc2ccccc2)C2(CCCCC2)C(C#N)=C(SCC(N)=O)N1
cell number change: -3.8% | AC50 [1]: 0.00461 µM [falling, full curve, poor fit]

Nn1c(-c2ccc(F)cc2)nc2ccccc2c1=O
cell number change: 27.9% | AC50 [2]: 3.26 µM [rising, full curve, poor fit] | AC50 [1]: 29.1 µM [rising, single point]

Cc1cc(C(=O)Nc2sc3c(c2C#N)CCCCC3)cs1
cell number change: -33.8% | AC50 [2]: 29.1 µM [falling, single point] | AC50 [1]: 5.17 µM [rising, full curve, poor fit]

Cc1ccc(NC(=O)N[C@H](C(=O)O)C(C)C)c(C)c1
cell number change: 13% | AC50 [1]: 29.1 µM [rising, single point]

Cc1ccc(-n2ccnc2SCC(=O)N(CC(C)C)C2CCS(=O)(=O)C2)c(C)c1 (configuration not stated)
cell number change: -23.1% | AC50 [1]: 10.3 µM [falling, partial curve, poor fit]

CN(C)c1ccc(/C=N/NC(=O)CN(c2cccc(Cl)c2)S(C)(=O)=O)cc1Br
cell number change: -31.4%

CC(=O)N(C)c1ccc(NC(=O)/C=C/c2ccccc2Cl)cc1
cell number change: -30.6% | AC50 [2]: 7.31 µM [falling, partial curve, poor fit] | AC50 [1]: 3.26 µM [falling, full curve]

COc1ccc(-n2nc3c(c2NC(=O)c2ccc(Br)o2)CS(=O)(=O)C3)cc1
AC50 [2]: 0.116 µM [rising, full curve, poor fit]

COCCCNC(=O)CCCn1c(=O)c2ccccc2n(CC(=O)Nc2c(C)cc(C)cc2C)c1=O
cell number change: 38.5% | AC50 [2]: 29.1 µM [rising, single point] | AC50 [1]: 0.013 µM [rising, full curve, poor fit]

OC(COc1ccc(Cl)cc1)CN1CCN(c2cccc(Cl)c2)CC1 (configuration not stated)
cell number change: -40.4% | AC50 [2]: 23.1 µM [falling, single point] | AC50 [1]: 32.6 µM [falling, partial curve]

O=C1N/C(=C/c2cccs2)C(=O)N1Cc1ccccc1F
cell number change: 31.6% | AC50 [1]: 2.06 µM [rising, full curve]

CC(=O)c1cccc(S(=O)(=O)N2CCC(C(=O)Nc3cccc(C(=O)NC4CC4)c3)CC2)c1
cell number change: -8.42% | AC50 [1]: 29.1 µM [falling, single point]

CCN(CC)c1nc2n(c(=O)n1)CCN2CC
AC50 [1]: 2.91 µM [falling, full curve]

Cc1ccc(C(=O)OC(C(=O)Nc2ccc(Cl)cc2C(F)(F)F)c2ccccc2)cc1 (configuration not stated)
cell number change: 1.38%

O=C(CSc1ccccc1)Nc1nccs1
cell number change: 60.6% | AC50 [2]: 16.4 µM [rising, single point]

COC(=O)C1=C(C)OC(N)=C(C#N)C1c1ccc(OC)c(OC)c1OC (configuration not stated)
AC50 [2]: 2.91 µM [rising, partial curve]

O=c1oc2ccccc2c(N2CCCCC2)c1[N+](=O)[O-]
cell number change: -20.5% | AC50 [1]: 3.66 µM [falling, full curve, poor fit]

COc1ccc(NC2CCCN(C(=O)c3csc(C)n3)C2)cc1 (configuration not stated)
cell number change: 40.3%

O=[N+]([O-])c1cc(Cl)c(Cl)c(Cl)c1Cl
cell number change: 12.6% | AC50 [2]: 0.00461 µM [rising, full curve, poor fit]

O=C(NOCc1ccccc1)c1ccc(Cl)cc1Cl
cell number change: -60.6% | AC50 [2]: 5.17 µM [falling, full curve] | AC50 [1]: 0.58 µM [rising, single point]

CC(=O)N/C(=C\c1ccccc1)C(=O)OCC(=O)c1ccc(F)cc1
cell number change: -14.8% | AC50 [1]: 0.00517 µM [falling, full curve, poor fit]

Cc1cc(C)nc(Nc2ccc(N3CCOCC3)cc2)n1
cell number change: 14.1%

CC1COc2ccccc2N1C(=O)c1ccc(Cl)nc1 (configuration not stated)
cell number change: 30.4% | AC50 [1]: 6.51 µM [falling, single point]

O=C(CSc1nnc(COc2ccc(F)cc2)o1)N1CCCCC1
cell number change: -2.63% | AC50 [1]: 5.62 µM [rising, single point]

N#Cc1c(N)c(C(=O)c2ccc(Br)cc2)n2c1CCC2
cell number change: -14.1% | AC50 [1]: 0.461 µM [rising, partial curve, poor fit]

COc1ccccc1N1CC(C(=O)Nc2ccc(N3CCOCC3)cc2)CC1=O (configuration not stated)
cell number change: 3.06% | AC50 [1]: 2.31 µM [rising, single point]

COc1cc(C(N)=O)cc(Cl)c1OCc1ccccc1
cell number change: 19.9% | AC50 [1]: 3.66 µM [rising, single point]

O=C(NNC(=O)c1ccccc1[N+](=O)[O-])c1ccco1
cell number change: -41% | AC50 [2]: 5.17 µM [falling, full curve, poor fit] | AC50 [1]: 18.4 µM [falling, single point]
